These results are taken from PMC6173745, “Aberrant expression of CITED2 promotes prostate cancer metastasis by activating the nucleolin-AKT pathway” (Nature Communications, 2018).

Chains of the proteins cited; added tags and fusions are not shown. Lines headed by an entry give the natural chain unless they say otherwise; changes in a name come on top.
UniProt O14744: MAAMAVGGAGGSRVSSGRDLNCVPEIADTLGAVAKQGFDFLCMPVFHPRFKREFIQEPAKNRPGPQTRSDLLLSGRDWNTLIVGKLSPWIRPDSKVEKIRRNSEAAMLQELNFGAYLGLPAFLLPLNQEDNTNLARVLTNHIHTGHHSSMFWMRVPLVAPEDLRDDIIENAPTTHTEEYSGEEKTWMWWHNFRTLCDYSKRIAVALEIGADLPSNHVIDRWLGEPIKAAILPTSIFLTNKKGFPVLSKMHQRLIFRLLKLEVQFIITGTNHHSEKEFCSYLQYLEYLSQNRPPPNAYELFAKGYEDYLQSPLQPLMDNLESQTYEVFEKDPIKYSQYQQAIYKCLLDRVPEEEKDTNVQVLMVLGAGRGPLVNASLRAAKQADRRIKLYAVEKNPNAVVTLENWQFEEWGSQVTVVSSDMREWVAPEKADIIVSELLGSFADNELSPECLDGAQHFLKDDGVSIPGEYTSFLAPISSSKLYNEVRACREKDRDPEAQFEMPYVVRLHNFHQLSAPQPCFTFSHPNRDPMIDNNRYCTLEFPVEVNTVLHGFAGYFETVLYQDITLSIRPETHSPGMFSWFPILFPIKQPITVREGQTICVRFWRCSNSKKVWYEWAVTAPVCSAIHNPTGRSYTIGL

No constants are given. Whether binding was seen depends on the method and setting. Binding can be weak; no strength is given. For part of these data: In cells and extracts the contact can be indirect. For part of these data: Where a sequence is shown, tags or fusion partners need not be part of it.

In assay [1] the target is T1, CITED2, endogenous (human (endogenous in HEK293T and prostate cancer cell lines)) (UniProt Q99967).
T1 sequence: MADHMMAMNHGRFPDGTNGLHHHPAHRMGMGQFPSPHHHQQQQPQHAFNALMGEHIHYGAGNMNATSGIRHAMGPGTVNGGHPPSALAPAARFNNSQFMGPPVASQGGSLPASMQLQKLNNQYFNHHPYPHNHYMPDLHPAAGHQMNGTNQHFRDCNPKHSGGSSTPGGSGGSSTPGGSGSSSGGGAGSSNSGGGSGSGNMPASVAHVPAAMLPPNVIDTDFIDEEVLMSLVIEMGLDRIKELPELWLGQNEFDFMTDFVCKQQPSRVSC
Kind of assay: SEC; FPLC of lysates of HEK293T cells transfected with pcDNA or CITED2; Superdex 200 10/300 GL, 4 °C; lysis buffer 20 mM Tris/HCl pH 7.5, 150 mM NaCl, 1 mM EDTA, 0.5% NP-40; eluates immunoblotted.

The target of assay [2] is T2, Flag/SBP-CITED2 (CBP/p300-interacting transactivator with E/D-rich carboxy-terminal domain-2) (UniProt Q99967).
T2 sequence: T1 sequence
Kind of assay: co-IP; HEK293T cells cotransfected with tagged proteins (Flag/SBP-CITED2 or its constructs, Myc-PRMT5 or its constructs, HA-P300); immunoprecipitation with anti-Flag or anti-Myc, western blotting. (In general: A western blot detects proteins with antibodies after separation by electrophoresis.)

The target of assay [3] is Myc-PRMT5 construct: N terminus of PRMT5. The assay is described as above.

For the molecule PRMT5, endogenous (from UniProt O14744), the binding entry in assay [1] is listed as “binds”.

For the molecule Myc-PRMT5 (from UniProt O14744), the binding result in assay [2] was “binds”.

B1: Human recombinant protein CITED2 (natural protein, UniProt Q99967 1-270, looked up)
chain: T1 sequence
notes: CITED2, human, recombinant protein bought from Origene; No catalogue number, host, tag or limits are printed; source: bought: Origene
In the case of B1, the binding entry in assay [3] is given as “binds”.
